Source: patent US20260116868A1 (Arcus Biosciences, Inc., priority 2023, published 2026)
Structures were worked out from names or drawings and are uncertain.

Sequences of proteins named here, by UniProt entry; tags and fusion partners are left off.
UniProt Q13191, whole entry: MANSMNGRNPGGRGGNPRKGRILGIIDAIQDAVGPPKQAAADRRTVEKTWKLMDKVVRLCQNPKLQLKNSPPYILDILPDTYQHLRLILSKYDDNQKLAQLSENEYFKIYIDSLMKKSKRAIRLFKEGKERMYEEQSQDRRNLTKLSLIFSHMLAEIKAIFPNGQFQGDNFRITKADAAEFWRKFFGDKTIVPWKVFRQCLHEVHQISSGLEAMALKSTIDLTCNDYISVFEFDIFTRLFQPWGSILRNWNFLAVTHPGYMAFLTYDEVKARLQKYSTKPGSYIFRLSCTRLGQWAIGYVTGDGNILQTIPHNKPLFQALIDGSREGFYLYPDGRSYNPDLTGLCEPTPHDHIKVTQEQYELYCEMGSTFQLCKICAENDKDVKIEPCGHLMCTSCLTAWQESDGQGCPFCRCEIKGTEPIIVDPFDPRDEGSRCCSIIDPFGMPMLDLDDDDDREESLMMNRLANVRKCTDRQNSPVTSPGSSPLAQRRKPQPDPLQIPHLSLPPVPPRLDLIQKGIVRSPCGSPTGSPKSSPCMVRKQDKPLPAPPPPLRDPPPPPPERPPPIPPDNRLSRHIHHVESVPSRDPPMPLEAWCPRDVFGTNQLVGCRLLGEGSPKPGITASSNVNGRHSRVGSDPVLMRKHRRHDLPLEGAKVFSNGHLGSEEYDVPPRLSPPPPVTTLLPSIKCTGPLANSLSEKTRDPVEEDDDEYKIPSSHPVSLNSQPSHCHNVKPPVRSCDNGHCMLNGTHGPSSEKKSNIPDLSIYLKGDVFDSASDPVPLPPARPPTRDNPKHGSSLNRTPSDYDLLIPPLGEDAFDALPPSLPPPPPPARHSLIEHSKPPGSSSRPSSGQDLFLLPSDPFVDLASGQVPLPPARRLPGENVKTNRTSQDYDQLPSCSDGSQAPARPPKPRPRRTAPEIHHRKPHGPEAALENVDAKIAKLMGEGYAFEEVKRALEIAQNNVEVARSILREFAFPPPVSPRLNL

Assays:
[1] = system: Jurkat cells; assay: IL-2 secretion assay in Jurkat cells activated with CD3/CD28 T Cell Activator; type: cell-based, human; details: read-out: IL-2 Secretion (EC50), 24 h, IL-2 AlphaLISA
Procedure: Certain compounds were also evaluated in an IL-2 secretion assay. On the day of the assay, a 16 point, 1:2 master serial dilution of each compound was prepared in Opti-MEM to span a final concentration range of 10 μM to 300 pM. Assays were set up in CORNING® tissue culture-treated 384-well microplates containing 60 nL of each dilution. Jurkat cells grown in RPMI-1640 supplemented with 10% FBS, 1% Glutamax, and 1% Pen/Strep were collected, resuspended in Opti-MEM. 50,000 cells/well and added to the compound plates. After a short spin (1200 rpm for 1 min), the plates were incubated at 37° C. for 1 hour. The cells were activated by adding 15 μL of IMMUNOCULT™ Human CD3/CD28 T Cell Activator (STEMCELL Technologies) diluted in Opti-MEM. After 24 h of incubation at 37° C., aliquots of culture supernatants were transferred to OptiPlate-384 (PerkinElmer) microplates. The level of IL-2 secretion in the supernatants was then determined using the IL-2 (human) AlphaLISA Detection Kit (PerkinElmer) according to the manufacturer's recommendations. The AlphaLISA signal was measured using an EnVision plate reader (PerkinElmer). EC50 values were determined by fitting the data to a standard 4-parameter logistic equation. See Table 7 for data for select compounds (IL-2 Secretion (EC50)).

[2] = molecular target: Cbl-b (Homo sapiens, UniProt Q13191); assay: Cbl-b probe displacement HTRF binding assay; details: read-out: Cbl-b Binding (IC50), 0.4 nM Cbl-b, 150 nM BODIPY probe
Procedure: The affinity with which compounds of the present disclosure bind to Cbl-b was assessed using probe displacement homologous time resolved fluorescence (HTRF) assays. The assays used a BODIPY™ conjugated probe (Example 54 from WO 2020264398) and biotinylated Cbl-b. The assays were performed in assay buffer consisting of 20 mM Hepes, 150 mM NaCl, 0.01% Triton X-100, 0.5 mM TCEP, 0.01% BSA. On the day of the assay, a 20 point, 1:2 master serial dilution of each compound was prepared in DMSO to span a final concentration range of […] to 0 nM. Two hundred nanoliters of diluted compound was added to each well of a 384-well plate. Fifteen microliters of biotinylated- Cbl-b resuspended in assay buffer were added to each well and the plate incubated for 60 minutes at room temperature prior to addition of 5 μL of BODIPY™ probe in assay buffer. Final assay conditions included 0.4 nM of Cbl-b and 150 nM of BODIPY™ probe. […] HTRF signal was measured by Envision plate reader, while competition of a compound of the present disclosure with probe results in a decrease of signal. Percentage maximum activity in each test well was calculated based on DMSO (maximum activity, 0% displacement) and no protein control wells (baseline activity, 100% displacement). Binding affinity was determined from a dose response curve fitted using a standard four parameter fit equation. […]

| Structure (SMILES) | EC50 [1] [nM] | IC50 [2] [nM] |
| --- | --- | --- |
| N#Cc1ccc(-c2cc(NC(=O)c3cc(CN[C@@H]4CCOC4)cn(C4CC4)c3=O)nc(C3CC3)c2)c(-c2nncn2C(F)F)c1 | 100 to 1000 | < 100 |
| C[C@H](NCc1cc(C(=O)Nc2cc(-c3c(F)cc(C#N)cc3C(=O)N3CC(F)(F)C3)cc(C3CC3)n2)c(=O)n(C)c1)C1CCC1 | – | < 100 |
